The supplement of paper PMC4604168 (melanoma cell lines)
Some of the results follow. Single values are uncertain, as repeats are few or missing.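 Cells were imaged in 1,536-well plates, and nuclei stained with an antibody against cleaved PARP were counted against all DNA-stained nuclei to give the apoptosis fraction. Screening doses were chosen to leave most cells alive, and resting and induced cleaved-PARP levels differ strongly between cell lines.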

What was measured:
Assay in all cases: cleaved PARP positive nuclei fraction relative to DMSO control; melanoma cells; higher = more apoptosis
Conditions in all cases: library dose: low library concentration; 72 h
[1] = system: 501Mel
[2] = system: A101D
[3] = system: A2058
[4] = system: A375
[5] = system: C32
[6] = system: CBRC008 (line from a melanoma biopsy)
[7] = system: CBRC014 (line from a melanoma biopsy)
[8] = system: CBRC016 (line from a melanoma biopsy)
[9] = system: CBRC017 (line from a melanoma biopsy)

SMILES | cleaved PARP positive nuclei fraction [1] [%] | cleaved PARP positive nuclei fraction [2] [%] | cleaved PARP positive nuclei fraction [3] [%] | cleaved PARP positive nuclei fraction [4] [%] | cleaved PARP positive nuclei fraction [5] [%] | cleaved PARP positive nuclei fraction [6] [%] | cleaved PARP positive nuclei fraction [7] [%] | cleaved PARP positive nuclei fraction [8] [%] | cleaved PARP positive nuclei fraction [9] [%]
O=c1[nH]nc(Sc2ncc([N+](=O)[O-])s2)n1-c1ccc2c(c1)OCCO2 + Cc1cc(Nc2cc(N3CCN(C)CC3)nc(/C=C/c3ccccc3)n2)n[nH]1 [ENMD2076] (first compound 0.2 µM, partner dose 0.04 µM) | 47.3 | 48.1 | 53.2 | 108 | 206 | 32.3 | 96.3 | 179 | 102
N#CC[C@H](C1CCCC1)n1cc(-c2ncnc3[nH]ccc23)cn1 [ruxolitinib] + Cc1nc(Nc2ncc(C(=O)Nc3c(C)cccc3Cl)s2)cc(N2CCN(CCO)CC2)n1 [dasatanib] (first compound 1 µM, partner dose 0.004 µM) | 76.7 | 132 | 121 | 41.9 | 81.1 | 44.1 | 109 | 125 | 115
Cc1cn(-c2cc(NC(=O)c3ccc(C)c(Nc4nccc(-c5cccnc5)n4)c3)cc(C(F)(F)F)c2)cn1 [nilotinib] + CNC(=O)c1cc(Oc2ccc(NC(=O)Nc3ccc(Cl)c(C(F)(F)F)c3)cc2)ccn1 [sorafenib] (first compound 0.2 µM, partner dose 0.4 µM) | 87 | 90.5 | 101 | 45.4 | 86.3 | 53.4 | 88.4 | 158 | 86.4
O=c1[nH]nc(Sc2ncc([N+](=O)[O-])s2)n1-c1ccc2c(c1)OCCO2 + Cn1c(Nc2ccc(C(F)(F)F)cc2)nc2cc(Oc3ccnc(-c4ncc(C(F)(F)F)[nH]4)c3)ccc21 [CHIR265] (first compound 0.2 µM, partner dose 0.08 µM) | 83.7 | 170 | 79.8 | 144 | 88.1 | 93.9 | 110 | 30.4 | 114
COc1cc([C@@H]2c3cc4c(cc3[C@@H](O[C@@H]3O[C@@H]5CO[C@@H](C)O[C@H]5[C@H](O)[C@H]3O)[C@H]3COC(=O)[C@H]23)OCO4)cc(OC)c1O [etoposide] + Cc1nc(Nc2ncc(C(=O)Nc3c(C)cccc3Cl)s2)cc(N2CCN(CCO)CC2)n1 [dasatanib] (first compound 0.02 µM, partner dose 0.004 µM) | 89.5 | 206 | 207 | 149 | 189 | 52.3 | 108 | 150 | 159
CC[C@]1(O)C[C@H]2CN(CCc3c([nH]c4ccccc34)[C@@](C(=O)OC)(c3cc4c(cc3OC)N(C=O)[C@H]3[C@@](O)(C(=O)OC)[C@H](OC(C)=O)[C@]5(CC)C=CCN6CC[C@]43[C@@H]65)C2)C1 [vincristine] + OCc1c[nH]c2ccccc12 [Indole-3-carbinol] (first compound 0.0001 µM, partner dose 0.8 µM) | 109 | 104 | 1080 | 620 | 96.5 | 204 | 97.6 | 71.9 | 299
CC[C@]1(O)C[C@H]2CN(CCc3c([nH]c4ccccc34)[C@@](C(=O)OC)(c3cc4c(cc3OC)N(C=O)[C@H]3[C@@](O)(C(=O)OC)[C@H](OC(C)=O)[C@]5(CC)C=CCN6CC[C@]43[C@@H]65)C2)C1 [vincristine] + O=C(O)c1ccc2c(c1)nc(Nc1cccc(Cl)c1)c1ccncc12 [CX4945] (first compound 0.0001 µM, partner dose 0.4 µM) | 51.4 | 287 | 189 | 200 | 89.4 | 155 | 143 | 228 | 138
O=c1[nH]nc(Sc2ncc([N+](=O)[O-])s2)n1-c1ccc2c(c1)OCCO2 + Cc1nc(Nc2ncc(C(=O)Nc3c(C)cccc3Cl)s2)cc(N2CCN(CCO)CC2)n1 [dasatanib] (first compound 0.2 µM, partner dose 0.004 µM) | 108 | 144 | 181 | 74.7 | 82.7 | 34 | 115 | 46.5 | 135
O=C(Nc1cc(C(F)(F)F)cc(C(F)(F)F)c1)c1cc(Cl)ccc1O + CC(=O)c1c(C)c2cnc(Nc3ccc(N4CCNCC4)cn3)nc2n(C2CCCC2)c1=O [palbociclib] (first compound 0.016 µM, partner dose 0.04 µM) | 389 | 475 | 46.9 | 99.1 | 130 | 93.5 | 142 | 162 | 97.2
O=C(Nc1cc(C(F)(F)F)cc(C(F)(F)F)c1)c1cc(Cl)ccc1O + Clc1ccc(Nc2nnc(Cc3ccncc3)c3ccccc23)cc1 [vatalanib] (first compound 0.016 µM, partner dose 2 µM) | 105 | 103 | 88.6 | 81.5 | 76.1 | 142 | 109 | 96.7 | 121
Cc1cc(Nc2cc(N3CCN(C)CC3)nc(Sc3ccc(NC(=O)C4CC4)cc3)n2)n[nH]1 [Tozasertib] + Cn1nnc2c(C(N)=O)ncn2c1=O [temozolomide] (first compound 0.006 µM, partner dose 2 µM) | 78.2 | 49.8 | 98.3 | 75.6 | 87.4 | 106 | 132 | 116 | 92.5
Cc1cn(-c2cc(NC(=O)c3ccc(C)c(Nc4nccc(-c5cccnc5)n4)c3)cc(C(F)(F)F)c2)cn1 [nilotinib] + CS(=O)(=O)CCNCc1ccc(-c2ccc3ncnc(Nc4ccc(OCc5cccc(F)c5)c(Cl)c4)c3c2)o1 [lapatinib] (first compound 0.2 µM, partner dose 0.8 µM) | 84.4 | 141 | 197 | 157 | 44.9 | 223 | 87 | 83.1 | 110
Cc1ccc(Nc2nccc(N(C)c3ccc4c(C)n(C)nc4c3)n2)cc1S(N)(=O)=O [Pazopanib] + C=CCNC1=C2C[C@@H](C)C[C@H](OC)[C@H](O)[C@@H](C)/C=C(\C)[C@H](OC(N)=O)[C@@H](OC)/C=C\C=C(/C)C(=O)NC(=CC1=O)C2=O [Tanespimycin] (first compound 0.4 µM, partner dose 0.002 µM) | 152 | 110 | 99.2 | 198 | 83.7 | 56.2 | 129 | 150 | 198
Cc1ccc(Nc2nccc(N(C)c3ccc4c(C)n(C)nc4c3)n2)cc1S(N)(=O)=O [Pazopanib] + O=C(O)[C@@H]1[O][Sb](=[O])([O][Sb]2(=[O])[O][C@H]([C@H](O)CO)[C@H](O)[C@H](C(=O)O)[O]2)[O][C@H]([C@H](O)CO)[C@@H]1O [stibogluconate] (first compound 0.4 µM, partner dose 2 µM) | 91.3 | 120 | 91.7 | 56.3 | 91.2 | 37.6 | 124 | 108 | 145
Cc1cc(Nc2cc(N3CCN(C)CC3)nc(Sc3ccc(NC(=O)C4CC4)cc3)n2)n[nH]1 [Tozasertib] + CCCS(=O)(=O)Nc1ccc(F)c(C(=O)c2c[nH]c3ncc(Cl)cc23)c1F [PLX4720] (first compound 0.006 µM, partner dose 0.08 µM) | 95.9 | 40.1 | 72.2 | 153 | 106 | 104 | 123 | 43.4 | 116
O=C(Nc1cc(C(F)(F)F)cc(C(F)(F)F)c1)c1cc(Cl)ccc1O + Cc1nc(Nc2ncc(C(=O)Nc3c(C)cccc3Cl)s2)cc(N2CCN(CCO)CC2)n1 [dasatanib] (first compound 0.016 µM, partner dose 0.004 µM) | 80.3 | 115 | 118 | 250 | 51.1 | 33.9 | 117 | 54.9 | 84.8
O=C(Nc1cc(C(F)(F)F)cc(C(F)(F)F)c1)c1cc(Cl)ccc1O + Cn1c(=O)n(-c2ccc(C(C)(C)C#N)cc2)c2c3cc(-c4cnc5ccccc5c4)ccc3ncc21 [NVP-BEZ235] (first compound 0.016 µM, partner dose 0.004 µM) | 62.2 | 248 | 95.4 | 119 | 75 | 119 | 98.4 | 96.9 | 133
CC[C@]1(O)C[C@H]2CN(CCc3c([nH]c4ccccc34)[C@@](C(=O)OC)(c3cc4c(cc3OC)N(C=O)[C@H]3[C@@](O)(C(=O)OC)[C@H](OC(C)=O)[C@]5(CC)C=CCN6CC[C@]43[C@@H]65)C2)C1 [vincristine] + O=C(/C=C/c1cccnc1)NCCCCC1CCN(C(=O)c2ccccc2)CC1 [FK866] (first compound 0.0001 µM, partner dose 0.01 µM) | 36.4 | 171 | 570 | 83.3 | 86.5 | 2900 | 124 | 588 | 842
CCCCCCCCCCCCCCCCCCOP(=O)([O-])OC1CC[N+](C)(C)CC1 [Perifosine] + C=C(c1ccc(C(=O)O)cc1)c1cc2c(cc1C)C(C)(C)CCC2(C)C [Bexarotene] (first compound 0.4 µM, partner dose 2 µM) | 117 | 63.1 | 81.8 | 175 | 84.3 | 158 | 98.7 | 133 | 120
CCCCCCCCCCCCCCCCCCOP(=O)([O-])OC1CC[N+](C)(C)CC1 [Perifosine] + Nc1cccc2c1CN(C1CCC(=O)NC1=O)C2=O [lenalidomide] (first compound 0.4 µM, partner dose 1 µM) | 87.8 | 379 | 49.3 | 529 | 82.5 | 83.1 | 204 | 81.7 | 88.3
CCCCCCCCCCCCCCCCCCOP(=O)([O-])OC1CC[N+](C)(C)CC1 [Perifosine] + O=C(O)c1ccc2c(c1)nc(Nc1cccc(Cl)c1)c1ccncc12 [CX4945] (first compound 0.4 µM, partner dose 0.4 µM) | 128 | 106 | 238 | 191 | 139 | 64.4 | 205 | 211 | 182

Looked up above:
Entry for CCCCCCCCCCCCCCCCCCOP(=O)([O-])OC1CC[N+](C)(C)CC1 [Perifosine] + O=C(O)c1ccc2c(c1)nc(Nc1cccc(Cl)c1)c1ccncc12 [CX4945] (first compound 0.4 µM, partner dose 0.4 µM) under cleaved PARP positive nuclei fraction [3] [%]: 238
Entry for CCCCCCCCCCCCCCCCCCOP(=O)([O-])OC1CC[N+](C)(C)CC1 [Perifosine] + C=C(c1ccc(C(=O)O)cc1)c1cc2c(cc1C)C(C)(C)CCC2(C)C [Bexarotene] (first compound 0.4 µM, partner dose 2 µM) under cleaved PARP positive nuclei fraction [5] [%]: 84.3
